The numbers were not newly measured in patent US8017575B2 (priority 2004, dated 2011), which cites them from elsewhere.

For this data set the following is noted: cats, not altered by reduced flow; cited from earlier work.

`CCN(CC)CC(=O)Nc1c(C)cccc1C` [lidocaine]: the extraction ratio is reported as 30%.
